Source: the supplement of paper PMC10849652
Some of the results follow.

By UniProt entry, the sequences of proteins in these tests, tags left out. Where a name states a change or a piece, a line headed by the entry shows the natural chain unless it says otherwise.
UniProt Q68DU8: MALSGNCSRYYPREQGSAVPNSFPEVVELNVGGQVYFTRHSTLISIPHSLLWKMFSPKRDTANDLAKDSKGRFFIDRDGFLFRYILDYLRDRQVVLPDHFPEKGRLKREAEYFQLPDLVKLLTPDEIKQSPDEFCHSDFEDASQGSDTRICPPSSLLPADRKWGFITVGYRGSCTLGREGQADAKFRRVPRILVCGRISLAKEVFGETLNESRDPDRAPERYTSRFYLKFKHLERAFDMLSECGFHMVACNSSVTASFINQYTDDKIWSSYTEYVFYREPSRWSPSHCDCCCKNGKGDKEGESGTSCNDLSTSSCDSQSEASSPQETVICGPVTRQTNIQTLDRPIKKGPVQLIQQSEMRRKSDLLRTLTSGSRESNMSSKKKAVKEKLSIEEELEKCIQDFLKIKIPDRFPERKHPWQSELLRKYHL
UniProt Q8NHM5: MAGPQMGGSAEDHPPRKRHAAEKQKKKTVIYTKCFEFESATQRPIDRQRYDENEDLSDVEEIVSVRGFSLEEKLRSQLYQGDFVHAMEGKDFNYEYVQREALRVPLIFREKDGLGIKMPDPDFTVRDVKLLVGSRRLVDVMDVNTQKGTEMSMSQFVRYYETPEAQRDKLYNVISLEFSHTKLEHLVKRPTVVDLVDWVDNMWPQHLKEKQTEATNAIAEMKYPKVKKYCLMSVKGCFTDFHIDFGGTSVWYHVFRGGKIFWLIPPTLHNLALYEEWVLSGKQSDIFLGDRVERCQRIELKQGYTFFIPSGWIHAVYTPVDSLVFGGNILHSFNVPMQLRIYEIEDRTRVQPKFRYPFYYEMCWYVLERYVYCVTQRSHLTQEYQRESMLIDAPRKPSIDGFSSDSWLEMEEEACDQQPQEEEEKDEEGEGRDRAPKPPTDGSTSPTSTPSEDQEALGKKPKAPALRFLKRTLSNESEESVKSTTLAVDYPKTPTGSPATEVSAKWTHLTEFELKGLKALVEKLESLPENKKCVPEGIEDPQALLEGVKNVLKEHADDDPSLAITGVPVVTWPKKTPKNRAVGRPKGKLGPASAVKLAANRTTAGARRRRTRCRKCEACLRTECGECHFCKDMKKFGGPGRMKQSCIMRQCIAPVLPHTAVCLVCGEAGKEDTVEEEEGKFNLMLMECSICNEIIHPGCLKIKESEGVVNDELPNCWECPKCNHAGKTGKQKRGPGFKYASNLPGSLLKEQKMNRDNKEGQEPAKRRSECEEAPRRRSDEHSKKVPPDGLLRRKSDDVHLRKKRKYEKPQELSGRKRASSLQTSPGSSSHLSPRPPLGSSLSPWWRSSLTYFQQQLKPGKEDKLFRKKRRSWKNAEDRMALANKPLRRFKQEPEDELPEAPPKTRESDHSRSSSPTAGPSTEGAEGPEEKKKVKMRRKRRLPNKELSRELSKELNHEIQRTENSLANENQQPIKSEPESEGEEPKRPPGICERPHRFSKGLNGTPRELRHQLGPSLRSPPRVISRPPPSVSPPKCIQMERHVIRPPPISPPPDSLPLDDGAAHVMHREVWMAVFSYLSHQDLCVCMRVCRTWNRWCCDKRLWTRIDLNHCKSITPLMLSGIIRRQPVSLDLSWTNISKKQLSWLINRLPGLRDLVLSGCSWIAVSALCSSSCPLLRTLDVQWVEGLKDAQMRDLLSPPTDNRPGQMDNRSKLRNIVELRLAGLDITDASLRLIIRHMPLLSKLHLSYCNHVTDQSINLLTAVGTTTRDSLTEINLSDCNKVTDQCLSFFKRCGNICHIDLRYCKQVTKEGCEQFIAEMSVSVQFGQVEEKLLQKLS
UniProt Q9Y287, whole entry, looked up: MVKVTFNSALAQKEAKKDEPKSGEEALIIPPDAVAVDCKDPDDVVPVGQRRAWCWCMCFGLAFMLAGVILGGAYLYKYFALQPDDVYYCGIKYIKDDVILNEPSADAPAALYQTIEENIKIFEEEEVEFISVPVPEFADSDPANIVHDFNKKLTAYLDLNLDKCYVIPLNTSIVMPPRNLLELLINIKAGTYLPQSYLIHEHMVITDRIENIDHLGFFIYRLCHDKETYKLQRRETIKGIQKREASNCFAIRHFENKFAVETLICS
UniProt P01591, whole entry, looked up: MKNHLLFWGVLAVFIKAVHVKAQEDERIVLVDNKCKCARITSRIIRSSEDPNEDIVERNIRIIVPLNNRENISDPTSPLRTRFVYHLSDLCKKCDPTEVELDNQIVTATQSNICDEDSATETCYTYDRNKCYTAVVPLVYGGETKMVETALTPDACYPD
UniProt Q96A47: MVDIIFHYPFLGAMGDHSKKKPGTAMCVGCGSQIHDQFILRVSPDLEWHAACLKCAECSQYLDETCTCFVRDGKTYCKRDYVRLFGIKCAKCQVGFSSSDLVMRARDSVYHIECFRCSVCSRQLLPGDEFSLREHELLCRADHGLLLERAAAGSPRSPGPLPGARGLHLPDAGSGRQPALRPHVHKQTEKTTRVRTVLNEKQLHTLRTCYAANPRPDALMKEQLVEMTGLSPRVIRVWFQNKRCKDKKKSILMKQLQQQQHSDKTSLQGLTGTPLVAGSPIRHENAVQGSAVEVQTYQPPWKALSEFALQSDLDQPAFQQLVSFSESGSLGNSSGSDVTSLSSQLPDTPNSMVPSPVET
UniProt Q674X7: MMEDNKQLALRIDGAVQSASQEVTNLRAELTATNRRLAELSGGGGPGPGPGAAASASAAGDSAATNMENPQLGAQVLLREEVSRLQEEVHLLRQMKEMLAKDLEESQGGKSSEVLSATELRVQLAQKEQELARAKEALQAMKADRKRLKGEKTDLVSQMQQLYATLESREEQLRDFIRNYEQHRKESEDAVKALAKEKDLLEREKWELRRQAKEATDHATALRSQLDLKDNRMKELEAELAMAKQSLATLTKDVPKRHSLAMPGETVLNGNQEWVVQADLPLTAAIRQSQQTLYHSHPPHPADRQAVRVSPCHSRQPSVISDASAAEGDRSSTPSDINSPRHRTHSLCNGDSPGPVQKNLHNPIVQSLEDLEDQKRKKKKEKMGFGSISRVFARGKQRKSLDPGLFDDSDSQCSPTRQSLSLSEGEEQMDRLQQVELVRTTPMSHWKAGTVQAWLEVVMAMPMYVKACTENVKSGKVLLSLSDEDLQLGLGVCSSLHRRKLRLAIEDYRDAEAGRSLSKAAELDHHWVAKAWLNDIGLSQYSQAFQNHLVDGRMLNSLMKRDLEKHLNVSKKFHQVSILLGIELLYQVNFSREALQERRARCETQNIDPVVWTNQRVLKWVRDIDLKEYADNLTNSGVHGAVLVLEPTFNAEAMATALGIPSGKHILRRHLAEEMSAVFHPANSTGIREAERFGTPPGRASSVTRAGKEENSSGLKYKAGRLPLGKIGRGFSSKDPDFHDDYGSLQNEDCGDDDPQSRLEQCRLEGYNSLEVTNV
UniProt Q14571, whole entry, looked up: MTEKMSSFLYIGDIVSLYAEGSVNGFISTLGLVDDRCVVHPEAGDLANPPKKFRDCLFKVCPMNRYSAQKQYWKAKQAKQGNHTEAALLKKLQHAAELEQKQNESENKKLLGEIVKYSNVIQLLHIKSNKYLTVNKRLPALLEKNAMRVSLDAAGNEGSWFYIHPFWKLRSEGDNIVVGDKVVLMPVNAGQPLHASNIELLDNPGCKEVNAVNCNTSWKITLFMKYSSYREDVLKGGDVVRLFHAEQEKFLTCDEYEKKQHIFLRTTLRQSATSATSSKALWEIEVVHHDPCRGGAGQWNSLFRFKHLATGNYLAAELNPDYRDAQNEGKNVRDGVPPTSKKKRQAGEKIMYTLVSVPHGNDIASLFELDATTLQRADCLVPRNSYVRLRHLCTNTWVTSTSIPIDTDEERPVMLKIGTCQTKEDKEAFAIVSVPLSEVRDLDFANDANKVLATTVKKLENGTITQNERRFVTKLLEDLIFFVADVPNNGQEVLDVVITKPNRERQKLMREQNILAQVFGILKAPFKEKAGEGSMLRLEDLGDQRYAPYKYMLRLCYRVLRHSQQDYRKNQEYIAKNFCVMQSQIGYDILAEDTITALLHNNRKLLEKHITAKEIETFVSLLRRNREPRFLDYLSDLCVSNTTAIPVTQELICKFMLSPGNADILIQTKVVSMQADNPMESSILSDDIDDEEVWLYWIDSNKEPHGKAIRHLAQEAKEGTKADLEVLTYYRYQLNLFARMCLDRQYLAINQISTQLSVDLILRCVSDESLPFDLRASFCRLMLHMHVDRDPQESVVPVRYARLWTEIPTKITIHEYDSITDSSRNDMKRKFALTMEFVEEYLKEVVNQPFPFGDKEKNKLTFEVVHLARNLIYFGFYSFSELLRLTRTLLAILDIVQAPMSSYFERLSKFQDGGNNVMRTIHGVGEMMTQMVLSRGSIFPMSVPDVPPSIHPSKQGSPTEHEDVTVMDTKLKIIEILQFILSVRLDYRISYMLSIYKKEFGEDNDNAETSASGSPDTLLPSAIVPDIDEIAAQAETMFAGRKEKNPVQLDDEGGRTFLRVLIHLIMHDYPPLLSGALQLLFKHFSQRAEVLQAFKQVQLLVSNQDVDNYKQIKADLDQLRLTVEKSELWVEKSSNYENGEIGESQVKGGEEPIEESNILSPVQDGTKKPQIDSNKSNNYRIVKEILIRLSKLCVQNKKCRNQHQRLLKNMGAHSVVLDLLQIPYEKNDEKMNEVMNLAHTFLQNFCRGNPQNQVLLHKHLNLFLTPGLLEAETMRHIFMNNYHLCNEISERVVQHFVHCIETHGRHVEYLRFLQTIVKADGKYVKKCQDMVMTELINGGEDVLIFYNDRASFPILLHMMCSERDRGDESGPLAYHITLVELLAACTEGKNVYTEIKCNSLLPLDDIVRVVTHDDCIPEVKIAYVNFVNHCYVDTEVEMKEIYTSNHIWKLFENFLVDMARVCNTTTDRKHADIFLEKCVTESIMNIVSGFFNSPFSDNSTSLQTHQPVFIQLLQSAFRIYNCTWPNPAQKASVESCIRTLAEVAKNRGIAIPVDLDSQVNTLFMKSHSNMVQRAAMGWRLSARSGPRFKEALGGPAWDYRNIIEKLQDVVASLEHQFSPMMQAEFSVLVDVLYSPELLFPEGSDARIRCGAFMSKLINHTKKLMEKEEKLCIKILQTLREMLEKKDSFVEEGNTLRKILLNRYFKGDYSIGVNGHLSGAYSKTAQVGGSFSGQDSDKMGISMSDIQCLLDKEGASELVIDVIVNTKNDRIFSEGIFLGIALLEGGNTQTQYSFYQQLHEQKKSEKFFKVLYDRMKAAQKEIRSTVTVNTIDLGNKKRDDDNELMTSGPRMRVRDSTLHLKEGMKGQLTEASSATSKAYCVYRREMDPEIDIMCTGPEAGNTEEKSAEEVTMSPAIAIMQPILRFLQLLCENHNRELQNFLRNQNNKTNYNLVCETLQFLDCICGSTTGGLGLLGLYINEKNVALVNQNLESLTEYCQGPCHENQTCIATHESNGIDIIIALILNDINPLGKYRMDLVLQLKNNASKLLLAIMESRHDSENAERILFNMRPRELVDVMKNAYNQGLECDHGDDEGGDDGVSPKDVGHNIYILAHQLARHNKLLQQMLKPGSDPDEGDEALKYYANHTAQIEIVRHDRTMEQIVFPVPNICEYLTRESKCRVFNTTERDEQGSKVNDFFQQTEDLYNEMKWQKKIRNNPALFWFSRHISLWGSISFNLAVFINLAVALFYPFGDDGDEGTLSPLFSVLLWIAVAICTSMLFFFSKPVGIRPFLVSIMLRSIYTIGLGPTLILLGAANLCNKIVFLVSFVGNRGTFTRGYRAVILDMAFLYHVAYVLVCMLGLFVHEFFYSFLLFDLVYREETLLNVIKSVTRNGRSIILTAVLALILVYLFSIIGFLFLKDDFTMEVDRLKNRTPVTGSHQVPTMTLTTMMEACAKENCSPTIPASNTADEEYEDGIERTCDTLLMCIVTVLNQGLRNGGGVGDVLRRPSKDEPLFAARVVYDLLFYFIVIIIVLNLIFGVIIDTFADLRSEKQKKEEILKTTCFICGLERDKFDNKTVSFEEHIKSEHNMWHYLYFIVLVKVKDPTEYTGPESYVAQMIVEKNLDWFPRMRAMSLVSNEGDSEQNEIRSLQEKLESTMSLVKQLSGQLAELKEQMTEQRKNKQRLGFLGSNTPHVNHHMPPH
UniProt Q9H9L4: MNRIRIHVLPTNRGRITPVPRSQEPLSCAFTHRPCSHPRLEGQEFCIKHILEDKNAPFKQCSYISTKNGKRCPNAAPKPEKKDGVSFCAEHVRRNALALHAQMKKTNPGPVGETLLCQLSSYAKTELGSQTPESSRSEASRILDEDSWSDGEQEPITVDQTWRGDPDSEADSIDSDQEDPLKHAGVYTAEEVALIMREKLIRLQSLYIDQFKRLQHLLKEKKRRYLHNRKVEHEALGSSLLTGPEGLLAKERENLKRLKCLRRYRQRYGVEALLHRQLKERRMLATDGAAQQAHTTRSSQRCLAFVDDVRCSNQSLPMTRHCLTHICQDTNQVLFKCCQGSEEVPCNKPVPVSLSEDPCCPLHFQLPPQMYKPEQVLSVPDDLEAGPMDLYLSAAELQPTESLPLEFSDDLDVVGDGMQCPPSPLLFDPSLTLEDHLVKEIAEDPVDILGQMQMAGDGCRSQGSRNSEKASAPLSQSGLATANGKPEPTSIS

How the values were obtained:
Test in all cases: log2 fold change, soluble protein after heating vs DMSO (PISA); higher = thermal stabilisation; K562 lysate, 10 uM; active = over 0.2 and 3.5 SD of the protein, either way, in both replicates (recomputed)
lapatinib = compound: CS(=O)(=O)CCNCc1ccc(-c2ccc3ncnc(Nc4ccc(OCc5cccc(F)c5)c(Cl)c4)c3c2)o1 [lapatinib]
How it was run: (§1)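 The values are log-two fold changes in thermal stability compared with solvent controls and come from duplicates. They were obtained by TMTpro 16plex LC-MS/MS, with channel sums equalised, on the supernatant after 21,000xg for 90 min. That supernatant came from crude K562 extract at 1 mg/mL protein treated with 10 μM compound for 30 min, heated for 3 min across 48°C-58°C, pooled and brought to 0.5% NP-40 at 4°C.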

[1] = compound: C[C@H](C1=CC=C(C=C1)C(=O)NC2=C3C=CNC3=NC=C2)N
How it was run: as §1

duvelisib = compound: C[C@H](Nc1ncnc2nc[nH]c12)c1cc2cccc(Cl)c2c(=O)n1-c1ccccc1 [duvelisib]
How it was run: as §1

gandotinib = compound: Cc1cc(Nc2cc(CN3CCOCC3)c3nc(C)c(Cc4ccc(Cl)cc4F)n3n2)n[nH]1 [gandotinib]
How it was run: as §1

tozasertib = compound: Cc1cc(Nc2cc(N3CCN(C)CC3)nc(Sc3ccc(NC(=O)C4CC4)cc3)n2)n[nH]1 [tozasertib]
How it was run: as §1

[2] = compound: Cc1cccc(CC(=O)N2CCc3c2ccc(-c2cn(C)c4ncnc(N)c24)c3F)n1
How it was run: as §1

nilotinib = compound: Cc1cn(-c2cc(NC(=O)c3ccc(C)c(Nc4nccc(-c5cccnc5)n4)c3)cc(C(F)(F)F)c2)cn1 [nilotinib]
How it was run: as §1

[3] = compound: Cc1nc(Nc2n[nH]c3c2CN(C(=O)N[C@H](CN(C)C)c2ccccc2)C3(C)C)c2sccc2n1
How it was run: as §1

dasatinib = compound: Cc1nc(Nc2ncc(C(=O)Nc3c(C)cccc3Cl)s2)cc(N2CCN(CCO)CC2)n1 [dasatinib]
How it was run: as §1

[4] = compound: Cc1ncc(-c2ccnc(Nc3ccc(S(C)(=O)=O)cc3)n2)n1C(C)C
How it was run: as §1

[5] = compound: Cn1cc(-c2ccc3c(c2)CCN3C(=O)Cc2cccc(C(F)(F)F)c2)c2c(N)ncnc21
How it was run: as §1

tipifarnib = compound: Cn1cncc1[C@@](N)(c1ccc(Cl)cc1)c1ccc2c(c1)c(-c1cccc(Cl)c1)cc(=O)n2C [tipifarnib]
How it was run: as §1

[6] = compound: NC(=O)c1cnc(N[C@@H]2CCCC[C@@H]2N)nc1Nc1cccc(-n2nccn2)c1
How it was run: as §1

[7] = compound: NC1(c2ccc(-c3nc4ccn5c(=O)[nH]nc5c4cc3-c3ccccc3)cc2)CCC1
How it was run: as §1

pictilisib = compound: CS(=O)(=O)N1CCN(Cc2cc3nc(-c4cccc5[nH]ncc45)nc(N4CCOCC4)c3s2)CC1 [pictilisib]
How it was run: as §1

crizotinib = compound: C[C@@H](Oc1cc(-c2cnn(C3CCNCC3)c2)cnc1N)c1c(Cl)ccc(F)c1Cl [crizotinib]
How it was run: as §1

doramapimod = compound: Cc1ccc(-n2nc(C(C)(C)C)cc2NC(=O)Nc2ccc(OCCN3CCOCC3)c3ccccc23)cc1 [doramapimod]
How it was run: as §1

bafetinib = compound: Cc1ccc(NC(=O)c2ccc(CN3CC[C@H](N(C)C)C3)c(C(F)(F)F)c2)cc1Nc1nccc(-c2cncnc2)n1 [bafetinib]
How it was run: as §1

quisinostat = compound: Cn1cc(CNCC2CCN(c3ncc(C(=O)NO)cn3)CC2)c2ccccc21 [quisinostat]
How it was run: as §1

[8] = compound: NC(=O)Nc1cc(-c2cccc(F)c2)sc1C(=O)N[C@H]1CCCNC1
How it was run: as §1

Measured: log2 fold change

KANSL1 (UniProt Q7Z3B3)
inactive: lapatinib 0.068 | [1] -0.043 | duvelisib -0.277 | gandotinib -0.107 | tozasertib 0.085 | [2] 0.088 | nilotinib -0.012 | [3] 0.241 | dasatinib 0.081 | [4] -0.032 | [5] 0.147 | tipifarnib -0.023 | [6] -0.038 | [7] 0.307

ITPKC (UniProt Q96DU7)
inactive: pictilisib 0.041 | crizotinib -0.132 | [1] -0.052 | duvelisib 0.035 | gandotinib -0.206 | tozasertib 0.032 | doramapimod -0.056 | bafetinib -0.058 | [2] 0.09 | nilotinib 0.004 | [3] -0.024 | dasatinib -0.047 | [4] -0.072 | [5] -0.004 | quisinostat -0.126 | tipifarnib 0.074 | [8] 0.041 | [7] -0.021

JPT2 isoform 2 (UniProt Q9H910)
inactive: pictilisib 0.079 | [1] 0.064 | duvelisib -0.328 | gandotinib 0.065 | bafetinib -0.035 | [2] -0.012 | dasatinib -0.103 | [5] 0.12

NA (UniProt J3KR12)
inactive: [1] -0.113 | gandotinib 0.226 | tozasertib 0.394 | [2] 1.01

KCTD16 (UniProt Q68DU8)
inactive: crizotinib -0.057 | doramapimod 0.046 | quisinostat -0.149 | [8] -0.033

Retrieved one by one from above, 2 records:
KCTD16 (UniProt Q68DU8)
inactive: crizotinib -0.057 | doramapimod 0.046 | quisinostat -0.149 | [8] -0.033

ITPKC (UniProt Q96DU7)
inactive: pictilisib 0.041 | crizotinib -0.132 | [1] -0.052 | duvelisib 0.035 | gandotinib -0.206 | tozasertib 0.032 | doramapimod -0.056 | bafetinib -0.058 | [2] 0.09 | nilotinib 0.004 | [3] -0.024 | dasatinib -0.047 | [4] -0.072 | [5] -0.004 | quisinostat -0.126 | tipifarnib 0.074 | [8] 0.041 | [7] -0.021

Additional entries follow.

KDM2B (UniProt Q8NHM5)
inactive: crizotinib 0.018 | tozasertib 0.048 | doramapimod -0.263 | quisinostat -0.177 | [8] 0.05 | [7] -0.082

JOSD1 (UniProt Q15040)
inactive: [7] 0.001

KDM2A (UniProt Q9Y2K7)
inactive: pictilisib 0.011 | [1] 0.029 | duvelisib 0.01 | gandotinib -0.001 | tozasertib -0.008 | bafetinib -0.152 | [2] -0.003 | nilotinib -0.046 | [3] 0.039 | dasatinib -0.057 | [4] 0.034 | [5] 0.084 | tipifarnib 0.028 | [7] 0.09

ITFG2 (UniProt H0YGR0)
inactive: lapatinib -0.012 | duvelisib -0.054 | dasatinib 0.001 | [5] 0.101 | [6] 0.062

KALRN (UniProt O60229)
inactive: crizotinib -0.002 | [1] -0.127 | gandotinib 0.031 | doramapimod 0.013 | [2] 0.058 | quisinostat -0.044 | [8] 0.034

IQCB1 (UniProt Q15051)
inactive: pictilisib -0.05 | [1] 0.071 | duvelisib 0.117 | gandotinib -0.198 | tozasertib -0.003 | bafetinib 0.013 | [2] -0.01 | nilotinib -0.069 | [3] -0.197 | dasatinib 0.098 | [4] 0.163 | [5] 0.155 | tipifarnib 0.084 | [7] -0.1

JARID2 (UniProt Q92833)
inactive: nilotinib 0.086 | [3] -0.216 | [4] -0.025 | tipifarnib 0.041

IPP (UniProt Q9Y573)
inactive: lapatinib 0.04 | [1] 0.067 | duvelisib -0.016 | gandotinib -0.172 | tozasertib 0.078 | [2] 0.074 | dasatinib -0.244 | [5] 0.03 | [6] -0.097 | [7] 0.093

JADE2 (UniProt Q9NQC1)
inactive: [1] -0.114 | duvelisib -0.109 | gandotinib -0.139 | tozasertib 0.26 | [2] 0.088 | dasatinib 0 | [5] 0.03

IRF9 (UniProt Q00978)
inactive: duvelisib 0 | dasatinib -0.05 | [5] 0.107 | [7] 0.139

ISG20L2 (UniProt Q9H9L3)
inactive: lapatinib -0.019 | [1] 0.12 | duvelisib -0.013 | gandotinib 0.028 | tozasertib 0.125 | [2] -0.011 | nilotinib -0.028 | [3] 0 | dasatinib 0.069 | [4] 0.329 | [5] 0.017 | tipifarnib 0.057 | [6] 0.084 | [7] -0.072

KANK2 isoform 2 (UniProt Q63ZY3)
inactive: lapatinib -0.142 | [1] 0.284 | duvelisib 0.084 | gandotinib -0.111 | tozasertib -0.095 | [2] 0.055 | dasatinib -0.046 | [5] -0.098 | [6] -0.035

JAK1 (UniProt P23458)
inactive: pictilisib -0.048 | crizotinib 0.029 | tozasertib -0.188 | doramapimod 0.032 | bafetinib 0.117 | quisinostat -0.087 | [8] 0.093

ITIH3 (UniProt Q06033)
inactive: pictilisib -0.053 | tozasertib 0.055 | bafetinib -0.068 | [7] -0.053

ITM2B (UniProt Q9Y287)
inactive: pictilisib -0.087 | crizotinib 0.005 | [1] -0.061 | duvelisib 0.033 | gandotinib -0.037 | doramapimod 0.007 | bafetinib -0.032 | [2] 0.138 | nilotinib 0.012 | [3] -0.028 | dasatinib 0.023 | [4] -0.002 | [5] -0.031 | quisinostat 0.015 | tipifarnib -0.012 | [8] 0.018 | [7] -0.024

ISG20 (UniProt Q96AZ6)
inactive: pictilisib -0.187 | duvelisib -0.028 | bafetinib 0.094 | dasatinib -0.108 | [5] 0.061 | [7] -0.076

JCHAIN (UniProt P01591)
inactive: crizotinib 1.2 | doramapimod -0.143 | quisinostat 0.389 | [8] -0.281 | [7] 1.17

JRK isoform 2 (UniProt O75564)
inactive: nilotinib -0.005 | [3] -0.033 | [4] -0.058 | tipifarnib 0.099

KDM3A (UniProt Q9Y4C1)
inactive: pictilisib -0.048 | crizotinib -0.036 | [1] 0.125 | duvelisib -0.065 | gandotinib -0.02 | tozasertib -0.008 | doramapimod 0.059 | bafetinib -0.044 | [2] -0.077 | nilotinib -0.021 | [3] 0.038 | dasatinib -0.067 | [4] -0.001 | [5] 0.004 | quisinostat -0.082 | tipifarnib 0.023 | [8] -0.011 | [7] 0.035

ISL2 (UniProt Q96A47)
inactive: pictilisib 0 | crizotinib 0.001 | duvelisib 0.006 | gandotinib -0.104 | doramapimod -0.074 | bafetinib -0.055 | [2] -0.096 | dasatinib 0.015 | [5] 0.053 | quisinostat 0.055 | [8] -0.092 | [7] 0.014
active: [1] 0.609

JMY (UniProt Q8N9B5)
inactive: pictilisib -0.315 | crizotinib -0.164 | [1] -0.098 | duvelisib 0.099 | gandotinib -0.014 | doramapimod 0.171 | bafetinib -0.249 | [2] 0.095 | dasatinib -0.073 | [5] -0.51 | quisinostat -0.183 | [8] -0.205 | [7] -0.092

KAZN isoform 3 (UniProt Q674X7)
inactive: pictilisib 0.01 | crizotinib 0.014 | [1] -0.008 | gandotinib 0.111 | doramapimod -0.04 | bafetinib -0.116 | [2] 0.012 | quisinostat 0.016 | [8] 0.133 | [7] -0.003

KCTD21 (UniProt Q4G0X4)
inactive: pictilisib 0.105 | crizotinib 0.013 | tozasertib 0.077 | doramapimod -0.013 | bafetinib -0.14 | nilotinib 0.052 | [3] -0.091 | [4] -0.012 | quisinostat -0.023 | tipifarnib 0.206 | [8] -0.009 | [7] 0.038

ITPRIP (UniProt Q8IWB1)
inactive: duvelisib 0.179 | dasatinib -0.017 | [5] 0.005 | [7] 0.06

ITGB3BP isoform 5 (UniProt Q13352)
inactive: crizotinib 0.124 | [1] 0.138 | gandotinib 0.054 | doramapimod 0.13 | [2] -0.133 | quisinostat -0.015 | [8] 0.192

JUNB (UniProt P17275)
inactive: crizotinib 0.031 | [1] 0.05 | duvelisib -0.133 | gandotinib 0.084 | doramapimod 0.099 | [2] -0.075 | dasatinib 0.066 | [5] -0.176 | quisinostat -0.11 | [8] -0.047

KCNH2 (UniProt Q12809)
inactive: crizotinib -0.19 | [1] 0.119 | gandotinib -0.148 | doramapimod 0.224 | [2] 0.013 | quisinostat -0.117

ITPR2 (UniProt Q14571)
inactive: lapatinib -0.571 | duvelisib -0.004 | nilotinib -0.008 | [3] -0.081 | dasatinib 0.019 | [4] 0.048 | [5] -0.078 | tipifarnib 0.003 | [6] 0.277 | [7] -0.12

KANSL2 (UniProt Q9H9L4)
inactive: crizotinib -0.011 | doramapimod -0.016 | quisinostat -0.024 | [8] 0.006 | [7] 0.023

KBTBD6 (UniProt Q86V97)
inactive: crizotinib -0.046 | [1] -0.049 | gandotinib -0.053 | doramapimod 0.127 | [2] 0.001 | nilotinib -0.255 | [3] -0.015 | [4] 0.112 | quisinostat 0.156 | tipifarnib 0.036 | [8] -0.098

JAK2 (UniProt O60674)
inactive: [1] -0.007 | duvelisib -0.049 | gandotinib -0.075 | [2] 0.135 | nilotinib 0.196 | [3] 0.071 | dasatinib -0.14 | [4] -0.064 | [5] -0.011 | tipifarnib 0.144 | [7] 0.095

KCTD13 (UniProt Q8WZ19)
inactive: pictilisib -0.04 | crizotinib -0.056 | duvelisib -0.082 | doramapimod 0.071 | bafetinib 0.055 | nilotinib -0.042 | [3] 0.093 | dasatinib 0.103 | [4] -0.07 | [5] 0.028 | quisinostat -0.087 | tipifarnib 0.01 | [8] 0 | [7] 0.056

ITGB1BP2 (UniProt Q9UKP3)
active: gandotinib 0.86
inactive: [1] -0.18 | duvelisib -0.005 | tozasertib -0.259 | [2] 0.548 | dasatinib -0.104 | [5] 0.249
